According to PubChem BioAssay AID504834 (National Center for Advancing Translational Sciences (NCATS), 2011):
Out of some 320,000 compounds screened, about 22,000 (6.9%) were called active. This list was built around the results that the source calls inconclusive (neither active nor inactive); the mix of calls is not that of the screen. Calls come from the whole dose curve; as a rule, active = well fitted inhibition curve with a large enough effect; inconclusive = small, poorly fitted or top-dose-only effect, or another doubt; inactive = no such curve, though single readings can be large or run the other way. Where the call is inconclusive, the potency comes from a doubtful curve fit.

Assay: Primary qHTS for delayed death inhibitors of the malarial parasite plastid, 96 hour incubation
Details: P. falciparum luciferase reporter growth; series mostly up to 28.7 µM
How it was run: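 Two parasite generations (96 h, 37 C, 5% CO2) of compound exposure in infected erythrocytes (0.05% parasitemia, 2% hematocrit). Luciferase-reporter P. falciparum; decreased luminescence indicates inhibited growth, aimed at apicoplast-acting delayed death.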
Potency is the fitted concentration of half-maximal effect.

Q: For `Cn1c(=O)c2c(nc(N/N=C/c3c(O)n(C4CCCCC4)c(=S)[nH]c3=O)n2C)n(C)c1=O`, which Potency is on record?
A: inconclusive: 11.7 µM [inhibitor, single point]

Q: With `O=C1C2CCCN2C(c2ccc(F)cc2)N1c1ccc(Cl)cc1` (stereo not drawn) as the compound, how does the Potency read?
A: inactive

Q: With `Fc1ccc(Cn2nnnc2CN2CCN(C3CCCC3)CC2)cc1` as the compound, how does the Potency read?
A: inactive

Q: For `Cc1ccccc1NC(=S)N(CCN(C)C)C(C)c1cccnc1` (stereo not drawn), which Potency is on record?
A: inconclusive: 9.28 µM [inhibitor, single point]

Q: Which Potency does the source give for `Cc1nn2c(nc(N3CCCCC3)c3ccccc32)c1C=O` here?
A: active: 5.22 µM

Q: For `CCn1nc(NS(=O)(=O)c2ccc([N+](=O)[O-])cc2)c2cc3ccccc3nc21`, which Potency is on record?
A: inconclusive: 18.5 µM [inhibitor, single point]

Q: With `Cc1cc(NC(=O)c2ccco2)c(=O)n(Cc2cccc(C(F)(F)F)c2)c1` as the compound, how does the Potency read?
A: inactive

Q: Which Potency does the source give for `Cc1cc(SCc2cccc(Cl)c2)nc(=O)[nH]1` here?
A: inactive

Q: Which Potency does the source give for `O=C(NCCn1ccc2ccccc21)c1cccc([N+](=O)[O-])c1` here?
A: inactive

Q: With `O=C(CNc1ccc(C(F)(F)F)cc1)Nc1cccc(S(=O)(=O)N2CCCC2)c1` as the compound, how does the Potency read?
A: inconclusive: 9.28 µM [inhibitor, single point]

Q: For `COc1ccc(N2CCN(C(=O)CN3C(=O)NC(c4ccc(OC)cc4)(c4ccc(OC)cc4)C3=O)CC2)cc1`, which Potency is on record?
A: inconclusive: 18.5 µM [inhibitor, single point]

Q: With `CC1CC(C)(C)OC(C[N+]2(C)CCCCC2)O1` (stereo not drawn) as the compound, how does the Potency read?
A: inconclusive: 18.5 µM [inhibitor, single point]

Q: With `CCOc1ccc(Nc2oc(-c3ccco3)nc2C#N)cc1` as the compound, how does the Potency read?
A: inconclusive: 9.28 µM [inhibitor, partial curve]

Q: Which Potency does the source give for `CN(CC(=O)NC1CC1)S(=O)(=O)c1ccc(F)cc1` here?
A: inconclusive: 0.0047 µM [inhibitor, full curve, poor fit]

Q: Which Potency does the source give for `S=c1[nH]nc(-c2ccc(Cl)cc2)n1-c1ccc2c(c1)OCCO2` here?
A: inconclusive: 9.28 µM [inhibitor, partial curve, poor fit]

Q: For `CC1(C)CC(=O)C(C=NCCN2CCN(C(=O)CCl)CC2)=C(O)C1`, which Potency is on record?
A: inconclusive: 9.28 µM [inhibitor, partial curve]

Q: Which Potency does the source give for `CNC(=O)C1CC(=O)N(c2ccc(OCC(=O)Nc3ccc(OC)cc3)cc2)C1` (stereo not drawn) here?
A: inconclusive: 0.147 µM [inhibitor, full curve, poor fit]

Q: With `Cc1cc(NS(=O)(=O)c2ccc(NC(=O)Nc3cccc(Cl)c3)cc2)no1` as the compound, how does the Potency read?
A: inactive

Q: Which Potency does the source give for `CC(=O)c1ccc(OC(=O)c2nc(-c3ccccc3)oc2C)cc1` here?
A: inactive

Q: For `N#Cc1c(-c2ccccc2)nc(SCC(=O)Nc2ccc(OC(F)(F)Cl)cc2)[nH]c1=O`, which Potency is on record?
A: active: 3.7 µM

Q: Which Potency does the source give for `O=C1c2ccccc2C(O)(Cc2ccccc2)N1Cc1ccco1` (stereo not drawn) here?
A: inactive

Q: Which Potency does the source give for `CCCC(=O)NC(c1ccc(OC)c(OC)c1)c1cc(Cl)c2cccnc2c1O` (stereo not drawn) here?
A: inconclusive: 8.28 µM [inhibitor, partial curve]

Q: For `CC1CCCCC12NC(=O)N(CC(=O)N1CCN(C(=O)c3cccs3)CC1)C2=O` (stereo not drawn), which Potency is on record?
A: inactive

Q: Which Potency does the source give for `CC(C)CC(=O)Nc1nnc(SCC(=O)Nc2nccs2)s1` here?
A: inactive

Q: For `COc1ccccc1CC(=O)N1CCN(c2ccccc2)CC1`, which Potency is on record?
A: inconclusive: 0.185 µM [inhibitor, full curve, poor fit]

Q: Which Potency does the source give for `Cc1ccc(C(=O)Nc2nnc(CC(=O)N/N=C/c3ccc(O)c(O)c3)s2)cc1` here?
A: inconclusive: 9.28 µM [inhibitor, partial curve, poor fit]

Q: For `C=CCN1C=C2C(=O)C(C)(OC(=O)C3CCCC3)C(=O)C=C2C=C1c1ccsc1` (stereo not drawn), which Potency is on record?
A: inconclusive: 16.5 µM [inhibitor, single point]

Q: Which Potency does the source give for `O=C(Nc1nc2ccc3ccccc3c2s1)c1ccc(N2CCCCC2)c([N+](=O)[O-])c1` here?
A: inconclusive: 1.85 µM [inhibitor, full curve, poor fit]

Q: For `Cc1nc(SCc2ccc(F)cc2)c2oc3ccccc3c2n1`, which Potency is on record?
A: inactive

Q: Which Potency does the source give for `Cc1cc(NC(=O)C2CC(c3ccc(F)cc3)=NO2)no1` (stereo not drawn) here?
A: active: 5.22 µM

Q: For `NNC(=O)CCn1c2ccccc2c2ccccc21`, which Potency is on record?
A: inconclusive: 10.4 µM [inhibitor, single point]

Q: With `COc1cccc(NC(=O)c2cc(-c3ccccn3)nc3ccccc23)c1` as the compound, how does the Potency read?
A: inconclusive: 18.5 µM [inhibitor, single point]

Q: Which Potency does the source give for `CN(Cc1cccc(F)c1)C(=O)c1cc(S(=O)(=O)N2CCOCC2)ccc1N1CCCC1` here?
A: inconclusive: 18.5 µM [inhibitor, single point]

Q: For `COc1ccc(C(CC(=O)O)NS(=O)(=O)c2ccc3c(c2)NC(=O)CO3)cc1` (stereo not drawn), which Potency is on record?
A: inactive

Q: For `CC(=O)c1ccccc1N(C(=O)c1ccco1)C(C(=O)NC1CCCC1)c1ccc(C)cc1` (stereo not drawn), which Potency is on record?
A: inconclusive: 9.28 µM [inhibitor, partial curve]

Q: With `S=C(Nc1ccc(Oc2ccccc2)cc1)NC1CCCC1` as the compound, how does the Potency read?
A: inactive

Q: With `O=S(=O)(Nc1cccc(Br)c1)c1cccc2nsnc12` as the compound, how does the Potency read?
A: inconclusive: 10.4 µM [inhibitor, single point]

Q: For `CC1CCCCN1S(=O)(=O)c1ccc(C(=O)Nc2nnc(-c3ccncc3)o2)cc1` (stereo not drawn), which Potency is on record?
A: inconclusive: 10.4 µM [inhibitor, single point]

Q: For `O=C(CS(=O)(=O)c1ccccc1)Nc1nc(-c2ccc(F)cc2)cs1`, which Potency is on record?
A: inconclusive: 10.4 µM [inhibitor, single point]

Q: For `O=c1[nH]ncc(N2CCN(Cc3ccccc3)CC2)c1Cl`, which Potency is on record?
A: inconclusive: 0.037 µM [inhibitor, full curve, poor fit]

Q: With `O=C(CSc1nnc(SCc2ccccc2)s1)NNC(=S)Nc1ccccc1` as the compound, how does the Potency read?
A: inactive

Q: With `Cc1ccc(C)c(-n2c(C)cc(/C=N/NC(=O)c3c(C)nc4cc(C)ccn34)c2C)c1` as the compound, how does the Potency read?
A: inconclusive: 18.5 µM [inhibitor, single point]

Q: With `O=C(c1cc(N2C(=O)C3C4CCC(C4)C3C2=O)ccc1Cl)N1CCN(c2ccccc2F)CC1` (stereo not drawn) as the compound, how does the Potency read?
A: inconclusive: 2.62 µM [inhibitor, single point]

Q: With `NC(=O)C1CCCN(Cc2c(C(=O)N3CCc4ccccc4C3)nc3ccc(Cl)cn23)C1` (stereo not drawn) as the compound, how does the Potency read?
A: inconclusive: 18.5 µM [inhibitor, single point]

Q: Which Potency does the source give for `Cc1ccccc1NC(=O)c1cc(S(=O)(=O)N2CCCCC2)cs1` here?
A: inconclusive: 18.5 µM [inhibitor, single point]

Q: With `CCC(C(=O)NCc1ccco1)n1nc(C)c2c(C)n(-c3ccc(C)cc3)nc2c1=O` (stereo not drawn) as the compound, how does the Potency read?
A: inactive

Q: Which Potency does the source give for `CCN(c1ccccc1)S(=O)(=O)c1ccc(Oc2ccc(C(C)=O)cc2OC)nc1` here?
A: inconclusive: 13.1 µM [inhibitor, single point]

Q: Which Potency does the source give for `CC(C)(C)c1ccccc1NC(=S)NC1CCCCC1` here?
A: active: 9.28 µM

Q: For `Nc1c(C(=O)OCC2CCCO2)c2nc3ccccc3nc2n1C1CCCCC1` (stereo not drawn), which Potency is on record?
A: inconclusive: 4.15 µM [inhibitor, single point]

Q: Which Potency does the source give for `CCCn1c(SCC(=O)N2CCc3ccccc32)nnc1-c1ccco1` here?
A: inconclusive: 18.5 µM [inhibitor, single point]

Q: With `Cc1ccc(S(=O)(=O)NC2(C(F)(F)F)NC(=O)N(CCc3ccccc3)C2=O)cc1` (stereo not drawn) as the compound, how does the Potency read?
A: inconclusive: 18.5 µM [inhibitor, single point]

Q: Which Potency does the source give for `O=C(Nc1ccc(F)cc1)Oc1ccccc1N1CCOCC1` here?
A: inactive

Q: Which Potency does the source give for `CCCCc1nc2cc(C(=O)N3CCNC(=O)C3)ccc2o1` here?
A: inconclusive: 9.28 µM [inhibitor, single point]

Q: For `COC(=O)CN1C(=S)N(Cc2ccccc2)C(=O)C1CC(=O)Nc1ccc(Br)cc1` (stereo not drawn), which Potency is on record?
A: inconclusive: 0.131 µM [inhibitor, full curve, poor fit]

Q: Which Potency does the source give for `O=c1c2ccccc2nc2n1C(CSc1ccc(Br)cc1)CN2` (stereo not drawn) here?
A: inconclusive: 0.131 µM [inhibitor, full curve, poor fit]

Q: With `Cc1ccc(NS(=O)(=O)c2ccc3c(c2)n(C)c(=O)n3C)cc1C` as the compound, how does the Potency read?
A: inconclusive: 18.5 µM [inhibitor, single point]

Q: For `O=c1cc2c(nn1Cc1ccccc1)-c1ccccc1CC2`, which Potency is on record?
A: inconclusive: 4.15 µM [inhibitor, partial curve, poor fit]

Q: With `Cc1ccc(N2CC(C(=O)Nc3cc(Cl)ccc3-n3cncn3)CC2=O)cc1` (stereo not drawn) as the compound, how does the Potency read?
A: inactive

Q: For `COc1ccccc1/C=N/NC(=O)C(=O)NCc1cccnc1`, which Potency is on record?
A: inconclusive: 1.17 µM [inhibitor, full curve]

Q: For `COc1ccc(NC(=O)/C(=C\c2ccc(OS(=O)(=O)c3ccc(C)cc3)cc2)NC(=O)c2ccccc2)cc1`, which Potency is on record?
A: inconclusive: 14.7 µM [inhibitor, partial curve, poor fit]

Q: For `CN(C)C(CNC(=O)C1CCN(S(=O)(=O)c2ccc(Cl)cc2)CC1)c1ccccc1` (stereo not drawn), which Potency is on record?
A: inconclusive: 20.8 µM [inhibitor, partial curve, poor fit]

Q: For `O=C(c1ncn(Cc2ccccc2)c1C(=O)N1CCc2ccccc2C1)N1CCc2ccccc2C1`, which Potency is on record?
A: inconclusive: 0.0029 µM [inhibitor, full curve, poor fit]

Q: Which Potency does the source give for `COc1ccc(C(=O)NC(C)c2nnc(SCc3ccc(Cl)c(Cl)c3)n2C)cc1` (stereo not drawn) here?
A: active: 11.7 µM

Q: Which Potency does the source give for `Cc1cc(C)nc(Nc2ccc(Cl)cc2C)n1` here?
A: inconclusive: 4.15 µM [inhibitor, single point]

Q: With `O=C(CCC(=O)N1CCSc2ccccc21)NCc1cccc(Br)c1` as the compound, how does the Potency read?
A: inactive

Q: For `O=C(NCCN1CCOCC1)C1CC(=O)N(c2ccc(Cl)cc2)C1` (stereo not drawn), which Potency is on record?
A: inactive

Q: With `CCCN1C(=O)c2cc(C(=O)Nc3ccc(OC)cc3OC)ccc2C1Nc1ccc(OC)cc1OC` (stereo not drawn) as the compound, how does the Potency read?
A: inconclusive: 14.7 µM [inhibitor, single point]

Q: Which Potency does the source give for `CC(C)=CCc1c(O)cc2oc3c(CC=C(C)C)c(O)c(O)c(CC=C(C)C)c3c(=O)c2c1O` here?
A: inactive
